Source: PubChem BioAssay AID2685 (National Center for Advancing Translational Sciences (NCATS), 2010)
Some of the results follow. Shown are side measurements of this screen, not its main read-out; they come without a call. The list favours compounds with an active or inconclusive main result. Words in brackets tell the shape of the fitted curve; partial curves, single points and poor fits give uncertain potencies.

Experiment: qHTS Assay for Lipid Storage Modulators in Drosophila S3 Cells;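 for cell number change: cells counted by Cell Tracker Red CMTPX staining in the red channel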
Settings: BODIPY lipid droplet fluorescence, 18-24 h; for cell number change: measured here: cell count max response, cells fed with added oleic acid
Summary of the method: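 Drosophila S3 cells loaded with oleic acid (400 uM, as added) and compounds at several concentrations; lipid droplets imaged by 488-nm laser-scanning cytometry, 500–530 nm intensity and object ratio to cell channel. Percent activity normalized to 20 uM Triacsin C.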

[1] = measured here: lipid fluorescence (Fed channel) AC50, cells fed with added oleic acid
[2] = measured here: cell number channel AC50, cells fed with added oleic acid

Structure (SMILES)	cell number change	AC50 [1]	AC50 [2]
O=C(CSc1nnc(COc2cccc3cccnc23)o1)N1CCCC1	5.94%	7.31 µM [rising, single point]	–
CC1=CCC2C(=O)N(c3ccc(C(=O)N4CCCCCC4)cc3)C(=O)C2C1 (stereo unspecified)	-89.8%	6.51 µM [falling, single point]	25.9 µM [falling, partial curve]
CCOC(=O)C1CCN(Cc2cc(Cl)c3ccccc3c2O)CC1	2.1%	18.4 µM [falling, partial curve, poor fit]	–
Cc1occc1C(=O)N1CCN(S(=O)(=O)c2ccccc2)CC1	8.9%	6.51 µM [falling, single point]	–
CCOCC(=O)N1CCN(c2cccc(Cl)c2)CC1	28.7%	–	–
O=C(Cn1ccc([N+](=O)[O-])n1)NCc1cccs1	38.3%	3.26 µM [rising, full curve]	–
CC(C)OC(=O)c1cc(-c2ccc(C=O)o2)ccc1Cl	0.407%	0.651 µM [rising, single point]	–
CCC1(C)Cc2ccccc2-c2nc3n(c(=O)c21)CCS3 (stereo unspecified)	-83.3%	–	29.1 µM [falling, single point]
Cc1ccc(C)c(Sc2ccc(NC(=O)CCN3C(=O)NC4(CCCC4)C3=O)cc2)c1	-52.3%	–	18.4 µM [falling, single point]
CCNc1c(NS(=O)(=O)c2ccc(F)c(Cl)c2)c(=O)oc2ccccc12	13.9%	–	–
C=CCc1cccc(/C=N/NC(=O)CCC(=O)Nc2ccc(C)cc2)c1O	52.3%	6.51 µM [rising, single point]	25.9 µM [rising, single point]
O=C(c1cc2ccccc2oc1=O)N1CCN(C(=O)C2CCCO2)CC1 (stereo unspecified)	-0.52%	25.9 µM [falling, partial curve, poor fit]	–
Cc1ccc(C2NC(=S)NC3=C2C(=O)CCC3)cc1 (stereo unspecified)	33%	29.1 µM [rising, single point]	29.1 µM [rising, single point]
COc1ccc(S(=O)(=O)Nc2ccc3c(c2)OCCO3)cc1OC	-2.76%	0.103 µM [rising, full curve, poor fit]	–
CCc1noc(C)c1C(=O)Nc1nc(-c2ccc(OC)cc2OC)cs1	–	2.06 µM [rising, partial curve]	1.16 µM [rising, partial curve]
C[C@H]1[C@H](C)CC[C@]2(C)CC[C@]3(C)C(=CC(=O)C4[C@@]5(C)CC[C@H](O)C(C)(C)C5CC[C@]43C)[C@H]12 (stereo partly specified)	14.3%	0.259 µM [rising, full curve, poor fit]	2.06 µM [rising, partial curve, poor fit]
O=S1(=O)CCOC[C@H](c2ccccc2)N1Cc1cccc(Cl)c1	14.4%	–	–
COc1ccc(NC(=O)c2cccc(S(=O)(=O)N3CCCCCC3)c2)cc1	27.8%	1.84 µM [falling, full curve]	–
CCCCc1nc2cc(C(=O)NC3CCOC(C)(C)C3)ccc2o1 (stereo unspecified)	-2.27%	29.1 µM [rising, single point]	–

Structure (SMILES)	cell number change	AC50 [1]	AC50 [2]
O=C(COc1ccc(Cl)cc1Cl)NCc1ccncc1	-29%	9.2 µM [rising, partial curve, poor fit]	–
O=C(c1ccc(NC(=O)C2(c3ccccc3)CCOCC2)cc1)N1CCOCC1	–	1.84 µM [falling, partial curve]	–
COc1ccccc1N1CCN(C2CCCC(C)C2)CC1 (stereo unspecified)	-37.6%	–	6.51 µM [falling, full curve, poor fit]
C/C(=N\Nc1nnc2c3ccccc3n(C)c2n1)c1ccc(C)o1	30.5%	29.1 µM [rising, single point]	1.64 µM [rising, full curve]
O=C(c1ccccc1)c1cnc(-c2ccc(Cl)cc2)s1	1.44%	29.1 µM [rising, single point]	–
CCn1c(=O)cc(OCC(=O)NCCC(C)C)c2ccccc21	0.368%	16.4 µM [rising, single point]	–
CCCCN(CCCC)S(=O)(=O)c1ccc(NC(=O)c2cccs2)cc1	47.1%	0.58 µM [rising, single point]	29.1 µM [rising, single point]
COc1ccc(Br)cc1CNC(=O)C1CCN(S(=O)(=O)N2CCCC2)CC1	-22.4%	32.6 µM [falling, single point]	–
Cc1cc2oc(=O)cc(CN(C)Cc3ccccc3F)c2cc1Cl	31%	–	32.6 µM [rising, single point]
CCC(=O)Oc1oc(-c2ccccc2)nc1C=Nc1ccccc1OC	-67.1%	0.0058 µM [falling, full curve, poor fit]	–
CCOc1ccc(Cl)cc1S(=O)(=O)N1CCC(C(=O)NCc2cccnc2)CC1	19.3%	–	0.58 µM [rising, full curve, poor fit]
COc1ccc(C)cc1NC(=O)CC(NC(C)=O)c1ccccc1 (stereo unspecified)	-18%	0.146 µM [falling, partial curve]	–
CN(C(=O)c1ccc([N+](=O)[O-])cc1)c1ccccc1C(=O)NCc1ccccc1	-7.18%	16.4 µM [rising, single point]	–
CC1CCc2sc3ncnc(N4CCN(C)CC4)c3c2C1 (stereo unspecified)	-22.3%	0.82 µM [rising, single point]	–
Cc1cc(C)n(-c2nnc(C)n2/N=C/c2ccccc2O)n1	–	20.6 µM [falling, partial curve]	–
COc1ccc(NC(=O)COc2ccccc2)cc1Cl	6.45%	–	0.0651 µM [rising, full curve, poor fit]
CC(=O)Nc1ccc(C(=O)CSc2nnnn2C(C)C)cc1	-6.87%	–	–
Cc1ccc(N(CC(=O)NCC2CCCO2)S(C)(=O)=O)cc1Cl (stereo unspecified)	13.7%	29.1 µM [falling, single point]	–
COc1ccc(CN2CCNC(=O)C2CC(=O)N(C)Cc2nccs2)cc1OC (stereo unspecified)	41%	7.08 µM [rising, full curve, poor fit]	–

Fetched by compound from above (two):
Structure (SMILES)	cell number change	AC50 [1]	AC50 [2]
Cc1cc(C)n(-c2nnc(C)n2/N=C/c2ccccc2O)n1	–	20.6 µM [falling, partial curve]	–
O=C(c1ccccc1)c1cnc(-c2ccc(Cl)cc2)s1	1.44%	29.1 µM [rising, single point]	–
